# Source: patent publication US20210322508A1, “PEPTIDES AND COMPOSITIONS FOR TARGETED TREATMENT AND IMAGING” (SIGNABLOK, INC., priority 2018, published 2021)
# Residues, ends and D or L forms follow the SMILES beside them.
# Test system: native lipoproteins
# Experiment: Ultracentrifugation of fluorescently labeled peptides with mouse serum
# Assay type: binding
# Settings: rho B-labeled peptide, whole mouse serum, density 1.21 g/mL
row,SMILES,interaction with native lipoproteins
1,CC(C)C[C@H](NC(=O)[C@H](Cc1ccccc1)NC(=O)CN)C(=O)N[C@@H](CO)C(=O)N[C@@H](CCCCN)C(=O)N[C@@H](CO)C(=O)N[C@@H](CC(C)C)C(=O)N[C@H](C(=O)N[C@@H](Cc1ccccc1)C(=O)N[C@@H](Cc1c[nH]c2ccccc12)C(=O)N[C@@H](CCC(N)=O)C(=O)N[C@@H](CCC(=O)O)C(=O)N[C@@H](CCC(=O)O)C(=O)N[C@@H](CC[S+](C)[O-])C(=O)N[C@@H](CCC(=O)O)C(=O)N[C@@H](CC(C)C)C(=O)N[C@@H](Cc1ccc(O)cc1)C(=O)N[C@@H](CCCNC(=N)N)C(=O)N[C@@H](CCC(N)=O)C(=O)N[C@@H](CCCCN)C(=O)N[C@H](C(=O)O)C(C)C)C(C)C (some centres unmarked) [G-KV21] (HELM PEPTIDE1{G.F.L.S.K.S.L.V.F.W.Q.E.E.[CS(=O)CC[C@H](N[*:1])C(=O)[*:2]].E.L.Y.R.Q.K.V}$$$$V2.0),may
2,"CC(C)C[C@H](NC(=O)[C@H](Cc1ccccc1)NC(=O)CN)C(=O)N[C@@H](CO)C(=O)N[C@@H](CCCCN)C(=O)N[C@@H](CO)C(=O)N[C@@H](CC(C)C)C(=O)N[C@H](C(=O)N[C@@H](Cc1ccccc1)C(=O)N[C@H](C(=O)N[C@@H](CCCCN)C(=O)N1CCC[C@H]1C(=O)N[C@@H](CCC(=O)O)C(=O)N[C@@H](CO)C(=O)N[C@@H](CCC(=O)O)C(=O)N[C@@H](CCCNC(=N)N)C(=O)N[C@@H](CC[S+](C)[O-])C(=O)N1CCC[C@H]1C(=O)N[C@@H](CS)C(=O)N[C@H](C(=O)N[C@@H](CCC(=O)O)C(=O)O)[C@@H](C)O)[C@@H](C)O)C(C)C (some centres unmarked) [G-TE21, reference compound]",may and may not
